This experiment concerns the target human plasma kallikrein (human, UniProt P03952 20-638). Description: phage display selection.

By UniProt entry, the sequences of proteins in these tests, tags left out. Residues count along the entry.
UniProt P03952, residues 20-638: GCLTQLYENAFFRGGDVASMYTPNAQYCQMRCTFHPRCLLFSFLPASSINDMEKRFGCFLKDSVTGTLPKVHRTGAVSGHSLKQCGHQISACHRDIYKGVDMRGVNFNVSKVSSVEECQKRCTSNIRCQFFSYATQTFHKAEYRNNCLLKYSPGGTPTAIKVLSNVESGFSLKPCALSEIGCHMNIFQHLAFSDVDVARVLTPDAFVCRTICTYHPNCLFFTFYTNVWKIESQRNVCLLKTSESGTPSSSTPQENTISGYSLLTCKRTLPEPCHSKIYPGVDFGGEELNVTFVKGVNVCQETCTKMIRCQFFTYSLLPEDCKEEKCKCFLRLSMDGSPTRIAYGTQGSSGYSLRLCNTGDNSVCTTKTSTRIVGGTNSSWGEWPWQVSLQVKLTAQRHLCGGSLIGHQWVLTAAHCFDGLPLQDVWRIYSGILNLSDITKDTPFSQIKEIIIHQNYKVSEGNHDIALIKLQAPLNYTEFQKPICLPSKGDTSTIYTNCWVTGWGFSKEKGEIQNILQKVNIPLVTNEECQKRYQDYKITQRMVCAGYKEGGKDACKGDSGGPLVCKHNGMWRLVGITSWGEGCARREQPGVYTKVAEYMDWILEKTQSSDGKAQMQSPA

2 molecules from patent US20040053206A1 (DYAX, published 2004) can be followed below.

Results are given in words; binding and its absence hold for the method and conditions named. Some results given as binding are weak or reduced against the parent protein; the word gives no strength.

B1: KKII/3#7 (designed binder)
chain: MHSFCAFKADDGHCKANHQRFFFNIFTRQCEEFSYGGCGGNQNRFESLEECKKMCTRD
On to B1, for which the binding entry is “binds”.

B2: KKII/3#8 (designed binder)
chain: B1 chain
With B2, the binding entry is recorded as “binds”.
